The record followed here is the supplement of paper PMC11659162.

This is one part of the list. This is a noisy data set.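 The cells are a human neuroglioma line carrying a green fluorescent autophagy reporter.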

One assay relates to H4 GFP-LC3. The experiment in a line: ACBP immunofluorescence intensity (scaled to control) (AU (scaled)); higher = more intracellular ACBP/DBI. The conditions noted are these: 6 h.
Regarding `Cc1nc2c([nH]1)c(=O)n(C)c(=O)n2Cc1ccco1` (5 µM), the ACBP immunofluorescence intensity was determined as 0.923.

In turn, `Nc1nc(NCCc2ccc(O)cc2)nc2nc(-c3ccco3)nn12` (5 µM) showed an ACBP immunofluorescence intensity of 0.99.

`C[C@H](NC[C@H](O)CP(=O)(O)Cc1ccccc1)c1ccc(Cl)c(Cl)c1` (5 µM): the ACBP immunofluorescence intensity is 0.983.

The compound `c1ccc(CN2CCC3(CCc4ccccc43)CC2)cc1` (5 µM) displayed an ACBP immunofluorescence intensity of 0.758.

Regarding `CC(C)NCC(O)c1ccc(NS(C)(=O)=O)cc1` (stereo not drawn) (5 µM), the ACBP immunofluorescence intensity is 0.908.

Compound `CCN(CC)CC1CCCCN1CC(=O)N1c2ccccc2C(=O)Nc2cccnc21` (stereo not drawn) (5 µM) came in with an ACBP immunofluorescence intensity of 0.828.

In turn, `CC[C@H](C)[C@H](NC(=O)[C@H](CCCN=C(N)N)NC(=O)[C@H](CCCN=C(N)N)NC(=O)[C@H](CC(C)C)NC(=O)[C@H](Cc1ccccc1)NC(=O)CNC(=O)CNC(=O)[C@@H](N)Cc1ccc(O)cc1)C(=O)N[C@@H](CCCN=C(N)N)C(=O)N1CCC[C@H]1C(=O)O` (5 µM) returned an ACBP immunofluorescence intensity of 0.652.

The compound `CC[N+]1(C)C2CCC1CC(OC(=O)C1CCC(C(=O)OC3CC4CCC(C3)[N+]4(C)CC)(c3ccccc3)c3ccccc31)C2` (stereo not drawn) (5 µM) returned an ACBP immunofluorescence intensity of 0.994.

`CC[C@@H]1C(=O)OC[C@@H]1Cc1cncn1C` (5 µM) gave an ACBP immunofluorescence intensity of 0.905.

For `N=C(N)NCCC[C@H](NC(=O)[C@H](Cc1ccccc1)NC(=O)[C@@H]1CCCN1C(=O)[C@H](CO)NC(=O)[C@H](Cc1ccccc1)NC(=O)CNC(=O)[C@@H]1CCCN1C(=O)[C@@H]1CCCN1C(=O)[C@@H](N)CCCNC(=N)N)C(=O)O` (5 µM), the ACBP immunofluorescence intensity was determined as 0.522.

Regarding `c1ccc(N2CCN(CCCOc3ccc4c(c3)OCO4)CC2)cc1` (5 µM), the ACBP immunofluorescence intensity came out at 0.998.

`CC1c2ccccc2CN1CC1=NCCN1` (stereo not drawn) (5 µM) came in with an ACBP immunofluorescence intensity of 0.86.

With `CN1CCC(=C2c3ccccc3C=Cc3ccccc32)CC1` (5 µM), the ACBP immunofluorescence intensity was determined as 0.999.

With `N[C@H]1CCN(O)C1=O` (5 µM), the ACBP immunofluorescence intensity was 0.879.

Compound `COC(=O)Nc1ccc2[nH]cc(CCNC(C)=O)c2c1` (5 µM) came in with an ACBP immunofluorescence intensity of 0.847.

The compound `CC(=O)[C@H]1CC[C@H]2[C@@H]3CCC4=CC(=O)CC[C@]4(C)[C@H]3CC[C@]12C` (5 µM) registered an ACBP immunofluorescence intensity of 0.55.

The compound `N=C(CC(O)COc1ccccc1-c1ccccc1)N1CCCCC1` (stereo not drawn) (5 µM) had an ACBP immunofluorescence intensity of 0.908.

Take `C=CCn1c(=O)c2c(nc(-c3ccc(S(=O)(=O)O)cc3)n2C)n(C)c1=O` (5 µM): the ACBP immunofluorescence intensity came to 0.969.

For `CN(C)CCCN1c2ccccc2Sc2ccc(Cl)cc21` (5 µM), the ACBP immunofluorescence intensity turned out to be 0.871.

With `CN(C)CCCc1cc(C(=O)Nc2ccc(-c3ccncc3)cc2)ccc1O` (5 µM), the ACBP immunofluorescence intensity was determined as 0.989.

`O=C(O)[C@H]1C[C@H](C(=O)O)N1` (5 µM): the ACBP immunofluorescence intensity came out at 0.868.

The same assay, now with this note: 24 h.
Compound `NC1(C(=O)O)CCCC1` (5 µM) came in with an ACBP immunofluorescence intensity of 0.407.

Compound `N[C@H](CO)C(=O)O` (5 µM) showed an ACBP immunofluorescence intensity of 0.411.

In the case of `Clc1ccc2nsnc2c1NC1=NCCN1` (5 µM), the ACBP immunofluorescence intensity stood at 0.903.

Take `O=C(NC1CCN(Cc2ccccc2)CC1)c1ccc(I)cc1` (5 µM): the ACBP immunofluorescence intensity came out at 0.828.

`N[C@@H](COP(=O)(O)O)C(=O)O` (5 µM) displayed an ACBP immunofluorescence intensity of 0.408.

`CN1CCN(CCCN2c3ccccc3Sc3ccc(C(F)(F)F)cc32)CC1` (5 µM): the ACBP immunofluorescence intensity is 0.92.

With `CC[C@H](C)[C@@H]1NC(=O)[C@H](Cc2ccc(O)cc2)NC(=O)[C@@H](N)CSSC[C@@H](C(=O)N2CCC[C@H]2C(=O)N[C@@H](CC(C)C)C(=O)NCC(N)=O)NC(=O)[C@H](CC(N)=O)NC(=O)[C@H](CCC(N)=O)NC1=O` (5 µM), the ACBP immunofluorescence intensity was 0.813.

The compound `CC[C@](N)(CCC(=O)O)C(=O)O` (5 µM) yielded an ACBP immunofluorescence intensity of 0.83.

`CN1CCN(c2nc3cc(C(F)(F)F)ccc3n3cccc23)CC1` (5 µM) gave an ACBP immunofluorescence intensity of 0.668.

`C[C@]12CCC(=O)C=C1CC[C@@H]1[C@@H]2[C@@H](O)C[C@@]2(C)[C@H]1CC[C@]2(O)C(=O)CO` (5 µM) showed an ACBP immunofluorescence intensity of 0.632.

The compound `CNCCC(Oc1ccc(C(F)(F)F)cc1)c1ccccc1` (stereo not drawn) (5 µM) gave an ACBP immunofluorescence intensity of 0.44.

Consider `c1ccc2c(CC3=NCCN3)cccc2c1` (5 µM), for which the ACBP immunofluorescence intensity worked out at 0.433.

Take `Nc1c2c(nc3ccccc13)CCCC2O` (stereo not drawn) (5 µM): the ACBP immunofluorescence intensity came to 0.48.

`CS(=O)(=O)Nc1c(O)ccc2c1CCCC2C1=NCCN1` (stereo not drawn) (5 µM) showed an ACBP immunofluorescence intensity of 0.499.

For `CCC(=O)N1CCN(c2ccc(-n3c(=O)ccc4cnc5ccc(-c6cnc7ccccc7c6)cc5c43)cc2C(F)(F)F)CC1` (0.3 µM), the ACBP immunofluorescence intensity was found to be 0.269.

Regarding `O=C(COc1ccc(C(=O)c2ccccc2)cc1)NC1CCN(Cc2ccccc2)CC1` (5 µM), the ACBP immunofluorescence intensity is 0.832.

On to `Cc1nc2c([nH]1)c(=O)n(C)c(=O)n2Cc1ccco1` (5 µM), for which the ACBP immunofluorescence intensity came to 0.516.

`Nc1nc(NCCc2ccc(O)cc2)nc2nc(-c3ccco3)nn12` (5 µM): the ACBP immunofluorescence intensity stood at 0.632.

`C[C@H](NC[C@H](O)CP(=O)(O)Cc1ccccc1)c1ccc(Cl)c(Cl)c1` (5 µM) came in with an ACBP immunofluorescence intensity of 0.508.

For the compound `c1ccc(CN2CCC3(CCc4ccccc43)CC2)cc1` (5 µM), the ACBP immunofluorescence intensity stood at 0.559.

The compound `CC(C)NCC(O)c1ccc(NS(C)(=O)=O)cc1` (stereo not drawn) (5 µM) came in with an ACBP immunofluorescence intensity of 0.805.

In turn, `CCN(CC)CC1CCCCN1CC(=O)N1c2ccccc2C(=O)Nc2cccnc21` (stereo not drawn) (5 µM) showed an ACBP immunofluorescence intensity of 0.566.

For the compound `CC[C@H](C)[C@H](NC(=O)[C@H](CCCN=C(N)N)NC(=O)[C@H](CCCN=C(N)N)NC(=O)[C@H](CC(C)C)NC(=O)[C@H](Cc1ccccc1)NC(=O)CNC(=O)CNC(=O)[C@@H](N)Cc1ccc(O)cc1)C(=O)N[C@@H](CCCN=C(N)N)C(=O)N1CCC[C@H]1C(=O)O` (5 µM), the ACBP immunofluorescence intensity amounted to 0.615.

`CC[N+]1(C)C2CCC1CC(OC(=O)C1CCC(C(=O)OC3CC4CCC(C3)[N+]4(C)CC)(c3ccccc3)c3ccccc31)C2` (stereo not drawn) (5 µM) came in with an ACBP immunofluorescence intensity of 0.419.

`CC[C@@H]1C(=O)OC[C@@H]1Cc1cncn1C` (5 µM) gave an ACBP immunofluorescence intensity of 0.62.

Take `N=C(N)NCCC[C@H](NC(=O)[C@H](Cc1ccccc1)NC(=O)[C@@H]1CCCN1C(=O)[C@H](CO)NC(=O)[C@H](Cc1ccccc1)NC(=O)CNC(=O)[C@@H]1CCCN1C(=O)[C@@H]1CCCN1C(=O)[C@@H](N)CCCNC(=N)N)C(=O)O` (5 µM): the ACBP immunofluorescence intensity came to 0.653.

Take `c1ccc(N2CCN(CCCOc3ccc4c(c3)OCO4)CC2)cc1` (5 µM): the ACBP immunofluorescence intensity is 0.885.

Take `CC1c2ccccc2CN1CC1=NCCN1` (stereo not drawn) (5 µM): the ACBP immunofluorescence intensity was 0.553.

With `CN1CCC(=C2c3ccccc3C=Cc3ccccc32)CC1` (5 µM), the ACBP immunofluorescence intensity was 0.94.

Regarding `N[C@H]1CCN(O)C1=O` (5 µM), the ACBP immunofluorescence intensity is 0.752.

In turn, `COC(=O)Nc1ccc2[nH]cc(CCNC(C)=O)c2c1` (5 µM) had an ACBP immunofluorescence intensity of 0.448.

The compound `CC(=O)[C@H]1CC[C@H]2[C@@H]3CCC4=CC(=O)CC[C@]4(C)[C@H]3CC[C@]12C` (5 µM) registered an ACBP immunofluorescence intensity of 0.876.

Turning to `N=C(CC(O)COc1ccccc1-c1ccccc1)N1CCCCC1` (stereo not drawn) (5 µM), the ACBP immunofluorescence intensity stood at 0.779.

`C=CCn1c(=O)c2c(nc(-c3ccc(S(=O)(=O)O)cc3)n2C)n(C)c1=O` (5 µM): the ACBP immunofluorescence intensity was 0.734.

Regarding `CN(C)CCCN1c2ccccc2Sc2ccc(Cl)cc21` (5 µM), the ACBP immunofluorescence intensity amounted to 0.55.

Consider `CN(C)CCCc1cc(C(=O)Nc2ccc(-c3ccncc3)cc2)ccc1O` (5 µM), for which the ACBP immunofluorescence intensity came out at 0.843.

For `O=C(O)[C@H]1C[C@H](C(=O)O)N1` (5 µM), the ACBP immunofluorescence intensity came out at 0.343.
